# Results are given in words; binding and its absence hold for the method and conditions named.
# B1: TelA, telomere resolvase from Agrobacterium tumefaciens strain C58 (enzyme, UniProt Q7CWV1 1-442)
# chain: MLAAKRKTKTPVLVERIDQFVGQIKEAMKSDDASRNRKIRDLWDAEVRYHFDNGRTEKTLELYIMKYRNALKAEFGPKSTPLAICNMKKLRERLNTYIARGDYPKTGVATSIVEKIERAEFNTAGRKPTVLLRIADFIAAMNGMDAKQDMQALWDAEIAIMNGRAQTTIISYITKYRNAIREAFGDDHPMLKIATGDAAMYDEARRVKMEKIANKHGALITFENYRQVLKICEDCLKSSDPLMIGIGLIGMTGRRPYEVFTQAEFSPAPYGKGVSKWSILFNGQAKTKQGEGTKFGITYEIPVLTRSETVLAAYKRLRESGQGKLWHGMSIDDFSSETRLLLRDTVFNLFEDVWPKEELPKPYGLRHLYAEVAYHNFAPPHVTKNSYFAAILGHNNNDLETSLSYMTYTLPEDRDNALARLKRTNERTLQQMATIAPVSRKG
# Key:
# [1] = biological target: AtSSBΔC7, Agrobacterium tumefaciens SSB lacking its last seven amino acids (Agrobacterium tumefaciens strain C58); assay: native gel or EMSA; both purified
# [2] = biological target: AtSSBΔC7, Agrobacterium tumefaciens SSB lacking its last seven amino acids (Agrobacterium tumefaciens strain C58); assay: cross-linking; glutaraldehyde 0.0001%, TelA with AtSSB or AtSSBΔC7, 25 mM HEPES pH 7.6, 0.1 mM EDTA, 100 mM or 200 mM NaCl, 30°C 15 min then 5 min with crosslinker; SDS-PAGE and anti-His western blot; both purified
binder,measurement,setting,value
B1,binding,[1],no binding
same,binding,[2],no binding

# Source: paper PMC7861564
